Values from PubChem BioAssay AID652243 (Drosophila RNAi Screening Center, 2013)
In all, the deposit lists about 24,000 reagents; shown is an unselected part of those with a known target gene and a result. Of all reagents, 246 (1%) got an active call. 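Plates not normalised; calls are printed but the firefly/Renilla ratio behind them is not deposited; fold cut for lowering reported inconsistently.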 The raw values are shown without normalisation. A plus sign joins genes that one reagent is predicted to hit. Reagent sequences are not shown. Not given: the amount of reagent.

Test: 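Fly genes required for human androgen receptor driven transcription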 (primary screen)
Cells: Drosophila S2R+ cells
Reagents: long dsRNA against Drosophila genes
Time to read-out: 72 h (48 h, then 24 h hormone)
Conditions: synthetic androgen R1881 at 10 nM for 24 h
Measurement: 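Per-well raw luminescence of the androgen-driven firefly reporter and of the Renilla control, two replicates each, without normalisation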
Reading the numbers: firefly reporter light: higher = more light from androgen-responsive reporter; Renilla control light: higher = more constitutive control signal (cell number, transfection)
Hit rule: 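Hit when the log firefly-to-Renilla ratio dropped or increased by a fixed fold versus the mean of GFP or LacZ controls across duplicate plates; lowering cut given as 1.5 and as 3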
Calls: active = hit: reporter lowered or raised; inactive = no hit

| gene | DRSC id | firefly reporter light, replicate 1 | firefly reporter light, replicate 2 | Renilla control light, replicate 1 | Renilla control light, replicate 2 | outcome |
| --- | --- | --- | --- | --- | --- | --- |
| CG7387 (GeneID 38915) | DRSC10833 | 7.04e5 | 8.11e5 | 1.20e6 | 1.26e6 | inactive |
| CG17294 (GeneID 34155) | DRSC02596 | 1.70e6 | 1.43e6 | 2.92e6 | 2.44e6 | inactive |
| CG33798 (GeneID 3772108) | DRSC37810 | 1.06e6 | 8.17e5 | 2.29e6 | 2.13e6 | inactive |
| esc (GeneID 34595) | DRSC03529 | 1.22e6 | 1.41e6 | 2.81e6 | 2.01e6 | inactive |
| esc (GeneID 34595) | DRSC28970 | 5.32e5 | 3.68e5 | 1.45e6 | 1.02e6 | inactive |
| Hsp70Bb + Hsp70Ba + Hsp70Bbb | DRSC28114 | 6.76e5 | 8.06e5 | 1.96e6 | 1.70e6 | inactive |
| Prosalpha7 (GeneID 36018) | DRSC07516 | 1.37e6 | 1.18e6 | 2.26e6 | 1.65e6 | inactive |
| Prosalpha7 (GeneID 36018) | DRSC29365 | 4.53e5 | 4.25e5 | 7.23e5 | 7.23e5 | inactive |
| CG33288 (GeneID 2768968) | DRSC11484 | 1.58e5 | 1.56e5 | 3.12e5 | 3.12e5 | inactive |
| LysD (GeneID 38127) | DRSC26238 | 4.27e5 | 3.64e5 | 4.25e5 | 7.20e5 | inactive |
| CG8564 (GeneID 38825) | DRSC10997 | 7.92e5 | 8.45e5 | 1.52e6 | 1.87e6 | inactive |
| CG6209 (GeneID 36517) | DRSC06968 | 61801 | 49714 | 1.58e6 | 1.58e6 | inactive |
| CG6209 (GeneID 36517) | DRSC28800 | 4.29e5 | 3.37e5 | 1.28e6 | 1.18e6 | inactive |
| Cyp4p2 (GeneID 35946) | DRSC07373 | 1.24e6 | 1.25e6 | 1.64e6 | 1.04e6 | inactive |
| Cyp4p2 (GeneID 35946) | DRSC26900 | 4.01e5 | 3.46e5 | 3.98e5 | 4.15e5 | inactive |
| CG12860 (GeneID 36629) | DRSC06200 | 48762 | 59517 | 9.54e5 | 9.54e5 | inactive |
| CG12860 (GeneID 36629) | DRSC26264 | 2.91e5 | 3.45e5 | 7.11e5 | 6.91e5 | inactive |
| jbug (GeneID 43997) | DRSC03952 | 2.84e5 | 3.63e5 | 4.85e5 | 5.55e5 | inactive |
| jbug (GeneID 43997) | DRSC04114 | 5.74e5 | 5.30e5 | 9.84e5 | 1.12e6 | inactive |
| jbug (GeneID 43997) | DRSC04167 | 3.65e5 | 3.62e5 | 2.31e6 | 2.14e6 | inactive |
| jbug (GeneID 43997) | DRSC04388 | 2.10e5 | 1.90e5 | 1.63e6 | 1.18e6 | inactive |
| jbug (GeneID 43997) | DRSC29978 | 4.55e5 | 3.46e5 | 1.26e6 | 1.26e6 | inactive |
| TotM (GeneID 33764) | DRSC02355 | 1.72e5 | 1.35e5 | 1.41e6 | 1.32e6 | inactive |
| CG14071 (GeneID 34507) | DRSC02374 | 2.54e5 | 2.54e5 | 1.76e6 | 1.35e6 | inactive |
| Dbx (GeneID 38254) | DRSC08271 | 91444 | 98738 | 1.07e6 | 1.38e6 | inactive |
| Dbx (GeneID 38254) | DRSC08394 | 58751 | 58586 | 1.07e6 | 8.49e5 | inactive |
| Dbx (GeneID 38254) | DRSC25311 | 8.47e5 | 8.89e5 | 1.84e6 | 1.94e6 | inactive |
| Dbx (GeneID 38254) | DRSC29604 | 1.87e5 | 3.30e5 | 5.85e5 | 5.85e5 | inactive |
| Dbx (GeneID 38254) | DRSC39044 | 7.15e5 | 6.73e5 | 1.90e6 | 2.17e6 | inactive |
| haf (GeneID 33339) | DRSC00381 | 95284 | 84890 | 8.01e5 | 8.80e5 | inactive |
| ninaB (GeneID 41678) | DRSC16807 | 1.89e5 | 1.88e5 | 3.88e6 | 3.50e6 | inactive |
| ninaB (GeneID 41678) | DRSC27875 | 6.35e5 | 5.64e5 | 1.90e6 | 1.21e6 | inactive |
| CG13154 (GeneID 36359) | DRSC06279 | 2.15e5 | 1.44e5 | 1.27e6 | 1.12e6 | inactive |
| CG17097 (GeneID 34461) | DRSC02569 | 2.17e5 | 1.86e5 | 1.37e6 | 1.42e6 | inactive |
| CG17097 (GeneID 34461) | DRSC24178 | 8.36e5 | 8.08e5 | 1.12e6 | 1.09e6 | inactive |
| Tnpo (GeneID 38721) | DRSC11309 | 4.36e5 | 4.99e5 | 9.58e5 | 1.27e6 | inactive |
| Tnpo (GeneID 38721) | DRSC25104 | 2.11e5 | 1.86e5 | 5.79e5 | 3.63e5 | inactive |
| CG13344 (GeneID 36541) | DRSC06378 | 8.42e5 | 8.85e5 | 9.51e5 | 9.95e5 | inactive |
| Mettl4 + CG14907 | DRSC26716 | 2.50e5 | 2.68e5 | 7.70e5 | 6.95e5 | inactive |
| MED28 (GeneID 43079) | DRSC15721 | 1.68e5 | 1.93e5 | 2.88e6 | 2.26e6 | inactive |
| Akt (GeneID 41957) | DRSC14108 | 52252 | 53690 | 2.63e5 | 2.92e5 | inactive |
| Akt (GeneID 41957) | DRSC36666 | – | – | – | – | inactive |
| Akt (GeneID 41957) | DRSC36667 | – | – | – | – | inactive |
| shd (GeneID 39592) | DRSC11129 | 1.97e5 | 1.34e5 | 1.69e6 | 1.70e6 | inactive |
| CG30098 (GeneID 246456) | DRSC05605 | 1.26e5 | 1.62e5 | 3.13e5 | 3.17e5 | inactive |
| CG30098 (GeneID 246456) | DRSC25946 | 3.17e5 | 3.55e5 | 9.15e5 | 7.97e5 | inactive |
| coro (GeneID 35596) | DRSC05007 | 8.98e5 | 6.50e5 | 1.48e6 | 1.18e6 | inactive |
| coro (GeneID 35596) | DRSC21417 | 6.80e5 | 7.22e5 | 2.08e6 | 2.15e6 | inactive |
| obst-H (GeneID 39681) | DRSC10935 | 3.00e5 | 2.54e5 | 3.69e6 | 3.01e6 | inactive |
| obst-H (GeneID 39681) | DRSC10940 | 3.19e5 | 2.83e5 | 2.07e6 | 2.38e6 | inactive |
| CG8746 (GeneID 35867) | DRSC07257 | 1.82e5 | 2.33e5 | 1.61e6 | 1.55e6 | inactive |
| CG31827 + CG18478 | DRSC01958 | 1.20e5 | 1.42e5 | 1.60e6 | 1.91e6 | inactive |
| Arc2 (GeneID 36597) | DRSC06436 | 30879 | 32725 | 6.59e5 | 6.59e5 | inactive |
| Arc2 (GeneID 36597) | DRSC28707 | 4.20e5 | 4.85e5 | 1.34e6 | 1.22e6 | inactive |
| CG31826 (GeneID 326164) | DRSC03357 | 1.40e5 | 1.58e5 | 1.82e6 | 2.21e6 | inactive |
| CG32712 (GeneID 318165) | DRSC17820 | 1.85e5 | 1.59e5 | 7.36e5 | 6.12e5 | inactive |
| CG33655 (GeneID 8674081) | DRSC38896 | 1.07e6 | 9.57e5 | 2.01e6 | 1.45e6 | inactive |
| betaNACtes6 + betaNACtes3 | DRSC27147 | 5.38e5 | 5.44e5 | 7.04e5 | 6.06e5 | inactive |
| CR40354 (GeneID 10178779) | DRSC38777 | 7.23e5 | 7.55e5 | 1.65e6 | 1.73e6 | inactive |
| CG6937 (GeneID 42662) | DRSC16140 | 1.32e5 | 1.31e5 | 1.21e6 | 1.56e6 | inactive |
| CG6937 (GeneID 42662) | DRSC23708 | 7.90e5 | 7.63e5 | 9.23e5 | 1.09e6 | inactive |
| CG34423 + Mthfs | DRSC04088 | 2.30e5 | 3.51e5 | 1.60e6 | 1.44e6 | inactive |
| Rac2 (GeneID 38831) | DRSC11262 | 1.05e5 | 99678 | 1.12e6 | 1.50e6 | inactive |
| Rac2 (GeneID 38831) | DRSC25086 | 6.30e5 | 5.30e5 | 5.39e5 | 5.26e5 | inactive |
| Atg9 (GeneID 36821) | DRSC06848 | 8.65e5 | 6.05e5 | 1.30e6 | 7.94e5 | inactive |
| Nop10 (GeneID 36135) | DRSC28427 | 2.61e5 | 3.72e5 | 5.95e5 | 9.18e5 | inactive |
| rin (GeneID 47998) | DRSC22997 | 6.07e5 | 8.00e5 | 1.30e6 | 1.34e6 | inactive |
| CG8407 (GeneID 36303) | DRSC07167 | 1.97e5 | 1.36e5 | 1.55e6 | 1.77e6 | inactive |
| Syb (GeneID 36080) | DRSC07559 | 7.65e5 | 6.00e5 | 2.01e6 | 1.95e6 | inactive |
| Syb (GeneID 36080) | DRSC25904 | 4.42e5 | 3.72e5 | 1.16e6 | 9.98e5 | inactive |
| CG11816 (GeneID 32310) | DRSC19428 | 1.62e5 | 1.61e5 | 2.78e6 | 2.63e6 | inactive |
| CG11816 (GeneID 32310) | DRSC23612 | 7.98e5 | 1.03e6 | 1.09e6 | 1.02e6 | inactive |
| Alg11 (GeneID 40402) | DRSC11647 | 57724 | 79130 | 4.34e5 | 7.60e5 | inactive |
| Eo (GeneID 32423) | DRSC20187 | 1.77e5 | 1.95e5 | 2.72e6 | 2.60e6 | inactive |
| Eo (GeneID 32423) | DRSC26129 | 3.19e5 | 2.92e5 | 7.52e5 | 8.65e5 | inactive |
